Data taken from PubChem BioAssay AID624297 (National Center for Advancing Translational Sciences (NCATS), 2012).
Out of some 340,000 compounds screened, about 6,200 (1.8%) were called active. The inconclusive results got no clear call from the source; some entries with a clear call stand among them for comparison. Calls follow the shape of the dose curve; as a rule, active = well fitted activation curve with a large enough effect; inconclusive = small, poorly fitted or top-dose-only effect; inactive = no such curve, though single readings can be large or run the other way. A potency beside an inconclusive call is a rough fit, not a confirmed value.
Potency is read from the fitted curve at half-maximal effect.

Assay: A quantitative high throughput screen for small molecules that induce DNA re-replication in SW480 colon adenocarcinoma cells. Also: nearly all actives have a fitted effect of over 55% in size. As to re-replication activation: % of control where 0% means no effect.
Conditions: Hoechst DNA content imaging, 48 h; re-replication activation: at 46.1 µM (top of the series) unless noted
How it was run: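 DNA re-replication was detected as more nuclei of elevated Hoechst intensity after 48 hr exposure to compound (23 nL pinned per well of 250 cells).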
For `COC(=O)c1ccc(-c2ccc(C(c3c(C)[nH][nH]c3=O)c3c(C)[nH][nH]c3=O)o2)cc1`, the Potency was inconclusive: 29.1 µM [activator, single point]. For `COC(=O)N/N=C/c1cn(CCCOc2ccccc2)c2ccccc12`, the Potency was inconclusive: 6.51 µM [activator, single point]. With `O=C(NCc1nc2ccccc2[nH]1)C1=C[C@@H](c2ccccc2)C[C@@H](OCCCCO)O1` the Potency was “inactive”. In the case of `O=C(O)c1ccc(S(=O)(=O)N2CCc3ccccc3C2)cc1`, the Potency is reported as inconclusive: 7.31 µM [activator, single point]. With `Cn1c(/C(C#N)=C/c2cccc(O)c2)nc2ccccc21` the Potency was inconclusive: 0.291 µM [activator, full curve, poor fit]. In the case of `Cc1ccc(OCCCCN2CCCCC2)c(C)c1`, the Potency is reported as inconclusive: 11.6 µM [activator, partial curve, poor fit]. With `Cn1c2ccccc2c(=O)c2cc(C#CC3(O)CCCCC3)ccc21` the Potency was inconclusive: 18.4 µM [activator, single point]. In the case of `CC(C)(C)c1ccc(NC(=O)N2CCCN(c3ccc([N+](=O)[O-])cn3)CC2)cc1`, the Potency is reported as “inactive”. For `Cc1c(CCCN)c2ccccc2n1Cc1ccccc1`, the Potency was inconclusive: 20.6 µM [activator, single point]. With `CC(C)N1CCc2c(sc(NC(=O)c3ccc(S(=O)(=O)N(C)CC4CCCO4)cc3)c2C(N)=O)C1` (stereo not drawn) the Potency was “inactive”. In the case of `CC1=NN(c2nc3ccccc3s2)C(O)(C(F)(F)F)C1` (stereo not drawn), the Potency is reported as “inactive”. With `O=C(NCCN1C(=O)S/C(=C\c2cccnc2)C1=O)c1ccc(S(=O)(=O)N2CCCC2)cc1` the Potency was inconclusive: 32.6 µM [activator, partial curve, poor fit]. With `O=C(Cc1ccccc1)N/N=C/c1cc(Br)cc(Cl)c1O` the Potency was inconclusive: 4.11 µM [activator, single point]. In the case of `CC12COC3(C(=O)Nc4ccc5ccccc5c4)CC1CCC32C` (stereo not drawn), the Potency is reported as inconclusive: 29.1 µM [activator, single point]. For `Cc1ccccc1NS(=O)(=O)c1cccc2nonc12`, the Potency was inconclusive: 0.651 µM [activator, full curve, poor fit]. For `COc1ccc(OC)c(NC(=O)NNC(=O)CCCOc2ccc(Cl)cc2C)c1`, the Potency was “inactive”. In the case of `N#Cc1c(=O)c2nc(NCCCO)ncc2n2c(=O)c3ccccc3[nH]c12`, the Potency is reported as inconclusive: 23.1 µM [activator, partial curve, poor fit]. With `CCN(CC)CCNC(=O)c1cn(CC)c2ccc(S(=O)(=O)N3CCc4ccccc4C3)cc2c1=O` the Potency was “inactive”. For `CSCCC(NC(=O)c1ccco1)C(=O)NCC1CCCCC1` (stereo not drawn), the Potency was inconclusive: 29.1 µM [activator, single point]. In the case of `CN(CCCCCCCCCCN(C)C(=O)Oc1cccc([N+](C)(C)C)c1)C(=O)Oc1cccc([N+](C)(C)C)c1`, the Potency is reported as “inactive”. With `COC(=O)CCc1c(C)c(C(=O)c2cc(OC)c(OC)c(OC)c2)c2ccccn12` the Potency was active: 10.3 µM. For `CNc1ccccc(C(=O)/C=C/c2ccccc2OC)c1=O`, the Potency was inconclusive: 16.4 µM [activator, partial curve, poor fit]. For `CC(=O)N1CCN(C(=O)COc2ccc(N(C)S(=O)(=O)c3cccs3)cc2)CC1`, the Potency was inconclusive: 1.3 µM [activator, partial curve, poor fit]. With `O=C(NCCCn1ccnc1)c1ccc(F)cc1` the re-replication activation was inconclusive: 91.3% [activator]. For `O=C(NCc1ccco1)c1cnn2c1NC(c1ccc(Br)cc1)CC2C(F)(F)F` (stereo not drawn), the Potency was inconclusive: 25.9 µM [activator, single point]. With `CC(C)N(c1ccccc1)c1ccc(NC(=O)COC(=O)CCN2C(=O)c3cccc([N+](=O)[O-])c3C2=O)cc1` the Potency was inconclusive: 14.6 µM [activator, partial curve, poor fit]. For `COCCNC(=O)c1ccc(C)cc1C`, the Potency was “inactive”. In the case of `O=C(CCC(=O)Nc1ccc(Br)cc1)N/N=C/c1cc([N+](=O)[O-])ccc1O`, the Potency is reported as inconclusive: 29.1 µM [activator, single point]. For `Cc1cc(OCc2cc(C(=O)N(C)C3CCOCC3)no2)cc(C)c1Cl`, the Potency was “inactive”. With `C/C(CCc1ccccc1)=N\NC(=S)NCCc1ccccc1` the Potency was inconclusive: 6.51 µM [activator, single point]. For `O=C(Nc1nccs1)c1cccc(NC(=O)c2ccco2)c1`, the Potency was “inactive”. In the case of `S=C(NCc1ccco1)N/N=C/c1cccnc1`, the Potency is reported as inconclusive: 0.58 µM [activator, partial curve, poor fit]. In the case of `OC(COCc1ccccc1)CN1CCN(Cc2ccc3c(c2)OCO3)CC1` (stereo not drawn), the Potency is reported as “inactive”. In the case of `N#C/C(=C\c1ccc(-c2cccc([N+](=O)[O-])c2)o1)C(=O)Nc1nc(-c2cccs2)cs1`, the Potency is reported as inconclusive: 11.6 µM [activator, partial curve, poor fit]. For `CC1CC(C)CN(C(=O)c2ccccc2Nc2ccc(SC(F)F)cc2)C1` (stereo not drawn), the Potency was inconclusive: 32.6 µM [activator, partial curve, poor fit]. For `CCCCOc1ccc(Br)cc1/C(C)=N/NC1=NCCN1`, the Potency was inconclusive: 20.6 µM [activator, single point]. For `C=C(C)C1Cc2c(C)nn(-c3cccc4cccnc34)c2C1` (stereo not drawn), the Potency was “inactive”. For `CC(C)(C)c1ccc(OCc2ccc(C(=O)N/N=C/c3ccc([N+](=O)[O-])cc3)o2)cc1`, the Potency was “inactive”. In the case of `COc1ccc2sc(N(CCCN(C)C)C(=O)c3ccc(S(=O)(=O)N4CCCc5ccccc54)cc3)nc2c1`, the Potency is reported as inconclusive: 29.1 µM [activator, single point]. For `CCCOC(=O)c1ccc(Oc2cn[nH]c2-c2ccc(OC)cc2O)cc1`, the Potency was inconclusive: 23.1 µM [activator, partial curve, poor fit]. With `COc1ccc(-c2nc(N)nc(C)c2Oc2ccccc2Br)c(O)c1` the Potency was inconclusive: 29.1 µM [activator, single point]. With `COC(=O)/C=C(\C)NC(=O)c1ccccc1Cl` the Potency was inconclusive: 32.6 µM [activator, partial curve, poor fit]. For `O=C(NCc1ccccn1)C1CCCN(S(=O)(=O)c2cc(Cl)ccc2Cl)C1` (stereo not drawn), the Potency was inconclusive: 0.326 µM [activator, partial curve, poor fit].
